Holding throughout (format): in vivo
Data set [1] concerns maximal electroshock seizures. Description: Maximum Electroshock Seizure (MES) test, rats. The settings on record: protection index, TD50 from rotarod (TOX); for PI (MES, rats, p.o.): 0.25 h. As for the experimental part: In order to define anticonvulsant activity, screening tests were performed, using animal models of seizures. […] The tests were based on administration of a compound to an animal and after certain time inducing state similar to epilepsy attack in human. Each substance (after dissolving in methylcellulose) was normally tested in doses 30, 100, and 300 mg/kg body weight (b.w.) (mice) or in 30 and 50 mg/kg b.w. (rats) in two possible routes of administration: intraperitoneal (i.p.) or oral (p.o.). […] […] (mice) the tests were also performed in doses 10 and 3 mg/kg b.w.
Maximum Electroshock Seizure (MES) test is an electric test, verifying activity towards generalized tonic-clonic seizures (grand mal epilepsy). […] Its procedure consists in administration to an animal a mentioned dose, […] (after anesthetic eye-drops: 0.5% tetracaine hydrochloride in 0.9% NaCl) and turning on electric current (60 Hz, 0.2 s, 50 mA (mice) or 150 mA (rats)). […]

The subject of data set [2] is maximal electroshock seizures. Description: Maximum Electroshock Seizure (MES) test, mice. The settings on record: for TPEMES (time to peak effect, MES): species not given. The procedure:
(§1) In order to define anticonvulsant activity, screening tests were performed, using animal models of seizures. […] Each substance (after dissolving in methylcellulose) was normally tested in doses 30, 100, and 300 mg/kg body weight (b.w.) (mice) or in 30 and 50 mg/kg b.w. (rats) in two possible routes of administration: intraperitoneal (i.p.) or oral (p.o.). Appropriate tests were performed 0.5 and 4 h after administration of the compound. […] (mice) the tests were also performed in doses 10 and 3 mg/kg b.w.
Maximum Electroshock Seizure (MES) test is an electric test, verifying activity towards generalized tonic-clonic seizures (grand mal epilepsy). […] Its procedure consists in administration to an animal a mentioned dose, and after 0.5 or 4 h attaching corneal electrodes (after anesthetic eye-drops: 0.5% tetracaine hydrochloride in 0.9% NaCl) and turning on electric current (60 Hz, 0.2 s, 50 mA (mice) or 150 mA (rats)). […] Normally, in the dose 30 mg/kg b.w. the test is done in 1 mouse after 0.5 or 4 h, in the dose 100 mg/kg b.w.—in 3 mice, and in the dose 300 mg/kg b.w.—in 1 mouse.

The subject of data set [3] is neurotoxicity (rotarod). Description: Neurotoxicity test (TOX), rotarod, mice. The note with it: species not given. The procedure: as §1
It is performed with use of rotarod test. The animal is placed on a plastic rod (1 inch in diameter), rotating 6 rpm. The rod is placed on a level discouraging the animal to jump off. […] Neurotoxicity is stated if the animal cannot stay on the rod for 1 min. in any of 3 trials. Normally the test is performed in dose 30 mg/kg b.w. in 4 mice (0.5 h) and in 2 mice (4 h), in the dose 100 mg/kg b.w. in 8 mice (0.5 h) and in 4 mice (4 h) and in the dose 300 mg/kg b.w. in 4 mice (0.5 h) and 2 mice (4 h).

Setting [4] is: protection index, TD50 from rotarod (TOX), mice, 0.25 h.

A value given as a limit tells only on which side of the number the result lay.

Regarding `Cc1cccc(C)c1OCCNC(C)CO` (stereo not shown) [Compound 11, R,S-2N-[(2,6-dimethylphenoxy)ethyl]amino-1-propanol], in data set [1], the “PI (MES, rats, p.o.)” value is reported as below 10.63.

Turning to `Cc1cccc(C)c1OCCN[C@H](C)CO` [Compound 12, R-(−)-2N-[(2,6-dimethylphenoxy)ethyl]amino-1-propanol], the “TPEMES (time to peak effect, MES)” value in data set [2] came to 0.25 h. In addition, in data set [2] (protection index printed beside the female mice ED50), the “PI (MES, mice, i.p.)” value came out at 1.74. Moreover, the “PI (MES, mice, i.p.)” value in data set [2] (setting [4]) was 5.51. Further, the “PI (MES, mice, p.o.)” value in data set [2] (protection index, mice, p.o.) is reported as 2.82. Moreover, in data set [1], the “PI (MES, rats, i.p.)” value came out at 6.74 and the “PI (MES, rats, p.o.)” value was above 17.48. In addition, the “TPETOX (time to peak effect, neurotoxicity)” value in data set [3] is 0.25 h.

As for `Cc1cccc(C)c1OCCN[C@@H](C)CO` [Compound 13, S-(+)-2N-[(2,6-dimethylphenoxy)ethyl]amino-1-propanol], the “PI (MES, mice, i.p.)” value in data set [2] (setting [4]) was 4.38. Further, in data set [1], the “PI (MES, rats, i.p.)” value was found to be 5.51.

`CCC(CO)NCCOc1c(C)cccc1Cl` (stereo not shown) [Compound 26, R,S-2N-[(2-chlor-6-methylphenoxy)ethyl]amino-1-butanol]: the “TPEMES (time to peak effect, MES)” value in data set [2] is 0.25 h. Also, the “PI (MES, mice, i.p.)” value in data set [2] (setting [4]) amounted to 2.56. Besides, in data set [1], the “PI (MES, rats, i.p.)” value was found to be 4.5 and the “PI (MES, rats, p.o.)” value is given as above 3.55. Also, the “TPETOX (time to peak effect, neurotoxicity)” value in data set [3] was determined as 0.25 h.

As for `Cc1cccc(Cl)c1OCC(=O)NCC(C)O` (stereo not shown) [Compound 68, R,S-1N-[(2-chlor-6-methylphenoxy)acetyl]amino-2-propanol], in data set [2] (protection index, mice, time not given), the “PI (MES, mice, i.p.)” value is 1.43.

The values above are taken from patent US8633251B2, “Derivatives of aminoalkanols, method of obtaining of aminoalkanols and their use” (Uniwersytet Jagiellonski, priority 2008, dated 2014).
